The values that follow come from paper PMC7396582.

The chains behind the UniProt entries cited, without tags or fusion partners. Residues count along the entry.
UniProt Q64542: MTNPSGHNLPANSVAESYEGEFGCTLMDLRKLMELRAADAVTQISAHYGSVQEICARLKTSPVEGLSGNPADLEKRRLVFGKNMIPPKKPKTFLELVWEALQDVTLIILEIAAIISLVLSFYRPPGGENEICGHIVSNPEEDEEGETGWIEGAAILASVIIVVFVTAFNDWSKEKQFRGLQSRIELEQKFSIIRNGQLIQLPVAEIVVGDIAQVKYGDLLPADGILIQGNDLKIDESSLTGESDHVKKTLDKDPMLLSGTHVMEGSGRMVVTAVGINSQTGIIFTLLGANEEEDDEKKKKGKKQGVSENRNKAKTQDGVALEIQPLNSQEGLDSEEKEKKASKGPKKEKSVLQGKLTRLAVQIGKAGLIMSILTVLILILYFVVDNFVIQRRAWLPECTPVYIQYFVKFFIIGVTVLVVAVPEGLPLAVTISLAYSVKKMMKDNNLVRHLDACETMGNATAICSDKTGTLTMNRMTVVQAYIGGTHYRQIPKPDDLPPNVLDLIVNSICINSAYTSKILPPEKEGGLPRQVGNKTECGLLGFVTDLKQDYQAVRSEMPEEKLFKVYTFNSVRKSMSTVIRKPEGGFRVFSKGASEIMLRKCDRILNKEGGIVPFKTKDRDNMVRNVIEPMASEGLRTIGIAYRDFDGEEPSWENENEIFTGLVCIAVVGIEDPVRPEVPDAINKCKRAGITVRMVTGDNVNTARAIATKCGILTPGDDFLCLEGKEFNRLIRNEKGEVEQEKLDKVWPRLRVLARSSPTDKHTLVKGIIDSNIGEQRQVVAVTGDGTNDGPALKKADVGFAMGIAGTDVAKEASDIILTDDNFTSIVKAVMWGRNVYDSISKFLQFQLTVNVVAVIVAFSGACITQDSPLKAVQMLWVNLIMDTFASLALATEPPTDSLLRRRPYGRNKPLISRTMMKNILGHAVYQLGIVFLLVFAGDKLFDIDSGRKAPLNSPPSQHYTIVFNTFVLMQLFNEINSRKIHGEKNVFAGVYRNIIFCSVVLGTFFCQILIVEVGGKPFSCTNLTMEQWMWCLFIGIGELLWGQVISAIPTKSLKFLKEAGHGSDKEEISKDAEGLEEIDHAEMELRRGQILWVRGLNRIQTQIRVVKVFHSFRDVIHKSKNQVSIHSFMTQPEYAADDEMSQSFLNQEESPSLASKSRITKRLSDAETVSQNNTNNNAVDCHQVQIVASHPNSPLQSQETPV
UniProt P21707: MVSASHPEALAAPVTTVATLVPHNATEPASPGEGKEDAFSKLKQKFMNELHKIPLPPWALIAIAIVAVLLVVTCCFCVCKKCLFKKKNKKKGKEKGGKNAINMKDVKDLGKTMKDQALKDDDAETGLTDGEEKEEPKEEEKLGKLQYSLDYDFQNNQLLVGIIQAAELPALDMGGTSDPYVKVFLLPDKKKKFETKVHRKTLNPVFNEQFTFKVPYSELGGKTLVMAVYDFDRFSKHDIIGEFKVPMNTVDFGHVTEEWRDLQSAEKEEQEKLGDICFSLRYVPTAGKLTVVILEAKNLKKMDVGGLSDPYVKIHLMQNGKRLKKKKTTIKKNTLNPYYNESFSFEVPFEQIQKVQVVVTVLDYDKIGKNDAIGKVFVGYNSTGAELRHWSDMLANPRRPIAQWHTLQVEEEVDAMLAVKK
UniProt Q5FVI6: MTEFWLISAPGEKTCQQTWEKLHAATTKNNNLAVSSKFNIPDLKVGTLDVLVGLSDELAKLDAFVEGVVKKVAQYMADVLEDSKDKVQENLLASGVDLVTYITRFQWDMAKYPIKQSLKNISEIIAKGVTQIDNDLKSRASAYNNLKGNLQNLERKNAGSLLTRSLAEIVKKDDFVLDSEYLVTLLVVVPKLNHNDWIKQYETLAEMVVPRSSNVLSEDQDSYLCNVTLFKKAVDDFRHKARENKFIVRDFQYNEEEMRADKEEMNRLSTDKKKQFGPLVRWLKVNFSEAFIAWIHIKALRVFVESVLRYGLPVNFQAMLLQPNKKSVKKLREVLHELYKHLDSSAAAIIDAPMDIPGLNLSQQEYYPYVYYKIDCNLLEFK
UniProt P60881: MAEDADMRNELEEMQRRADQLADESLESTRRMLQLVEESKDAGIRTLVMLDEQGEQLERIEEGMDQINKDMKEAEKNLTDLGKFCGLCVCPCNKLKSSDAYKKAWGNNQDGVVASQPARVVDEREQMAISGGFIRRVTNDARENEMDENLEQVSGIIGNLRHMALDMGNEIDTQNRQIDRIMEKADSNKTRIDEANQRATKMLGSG
UniProt P47863: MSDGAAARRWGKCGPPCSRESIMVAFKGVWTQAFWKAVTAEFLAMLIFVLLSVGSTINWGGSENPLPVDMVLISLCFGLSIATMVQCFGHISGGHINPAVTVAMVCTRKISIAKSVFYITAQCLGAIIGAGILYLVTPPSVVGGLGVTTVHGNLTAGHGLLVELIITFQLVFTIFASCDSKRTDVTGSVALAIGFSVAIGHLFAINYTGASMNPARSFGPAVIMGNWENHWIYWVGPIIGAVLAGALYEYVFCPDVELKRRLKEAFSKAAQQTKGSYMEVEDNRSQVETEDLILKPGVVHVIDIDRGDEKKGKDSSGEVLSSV
UniProt Q07310, residues 28-1578: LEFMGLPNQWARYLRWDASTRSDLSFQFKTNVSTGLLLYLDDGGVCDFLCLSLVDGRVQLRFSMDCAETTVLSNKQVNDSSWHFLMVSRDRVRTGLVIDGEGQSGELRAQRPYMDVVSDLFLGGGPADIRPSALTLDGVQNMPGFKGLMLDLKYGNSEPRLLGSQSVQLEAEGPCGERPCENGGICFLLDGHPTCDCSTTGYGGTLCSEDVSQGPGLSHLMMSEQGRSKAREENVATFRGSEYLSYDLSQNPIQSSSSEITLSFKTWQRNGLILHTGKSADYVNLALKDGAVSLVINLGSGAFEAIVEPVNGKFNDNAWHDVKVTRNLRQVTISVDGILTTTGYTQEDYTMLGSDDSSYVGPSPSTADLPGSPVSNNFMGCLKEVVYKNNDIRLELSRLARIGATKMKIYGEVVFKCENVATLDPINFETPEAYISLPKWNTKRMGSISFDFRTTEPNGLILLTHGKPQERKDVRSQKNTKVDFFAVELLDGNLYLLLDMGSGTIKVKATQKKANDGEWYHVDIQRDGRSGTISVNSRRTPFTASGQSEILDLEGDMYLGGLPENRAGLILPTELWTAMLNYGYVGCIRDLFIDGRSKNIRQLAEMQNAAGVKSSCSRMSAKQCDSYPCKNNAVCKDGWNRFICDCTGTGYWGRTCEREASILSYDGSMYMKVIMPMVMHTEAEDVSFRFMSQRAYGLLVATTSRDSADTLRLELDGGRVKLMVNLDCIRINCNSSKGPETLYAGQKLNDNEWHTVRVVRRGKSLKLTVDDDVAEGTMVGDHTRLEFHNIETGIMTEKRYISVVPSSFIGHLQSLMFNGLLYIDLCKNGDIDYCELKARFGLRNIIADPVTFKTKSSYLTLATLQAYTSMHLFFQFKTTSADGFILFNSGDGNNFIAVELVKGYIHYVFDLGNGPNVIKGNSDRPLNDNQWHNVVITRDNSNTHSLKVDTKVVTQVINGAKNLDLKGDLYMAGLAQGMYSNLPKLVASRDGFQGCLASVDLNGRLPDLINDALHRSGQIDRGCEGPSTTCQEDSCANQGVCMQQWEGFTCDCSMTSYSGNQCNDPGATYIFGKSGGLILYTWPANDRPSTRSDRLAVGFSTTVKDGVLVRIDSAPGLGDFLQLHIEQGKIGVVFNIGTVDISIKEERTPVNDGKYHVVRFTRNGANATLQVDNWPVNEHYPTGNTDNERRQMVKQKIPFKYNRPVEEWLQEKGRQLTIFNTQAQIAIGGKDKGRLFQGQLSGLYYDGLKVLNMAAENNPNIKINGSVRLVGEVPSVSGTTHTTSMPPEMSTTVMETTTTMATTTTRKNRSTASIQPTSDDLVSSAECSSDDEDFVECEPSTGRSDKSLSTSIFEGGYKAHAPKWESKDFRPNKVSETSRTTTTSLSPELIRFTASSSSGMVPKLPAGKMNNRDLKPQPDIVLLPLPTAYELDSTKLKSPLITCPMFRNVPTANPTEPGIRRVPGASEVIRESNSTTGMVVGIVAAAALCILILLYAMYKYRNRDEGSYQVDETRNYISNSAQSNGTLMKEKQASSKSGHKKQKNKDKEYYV
UniProt P13596, residues 20-858: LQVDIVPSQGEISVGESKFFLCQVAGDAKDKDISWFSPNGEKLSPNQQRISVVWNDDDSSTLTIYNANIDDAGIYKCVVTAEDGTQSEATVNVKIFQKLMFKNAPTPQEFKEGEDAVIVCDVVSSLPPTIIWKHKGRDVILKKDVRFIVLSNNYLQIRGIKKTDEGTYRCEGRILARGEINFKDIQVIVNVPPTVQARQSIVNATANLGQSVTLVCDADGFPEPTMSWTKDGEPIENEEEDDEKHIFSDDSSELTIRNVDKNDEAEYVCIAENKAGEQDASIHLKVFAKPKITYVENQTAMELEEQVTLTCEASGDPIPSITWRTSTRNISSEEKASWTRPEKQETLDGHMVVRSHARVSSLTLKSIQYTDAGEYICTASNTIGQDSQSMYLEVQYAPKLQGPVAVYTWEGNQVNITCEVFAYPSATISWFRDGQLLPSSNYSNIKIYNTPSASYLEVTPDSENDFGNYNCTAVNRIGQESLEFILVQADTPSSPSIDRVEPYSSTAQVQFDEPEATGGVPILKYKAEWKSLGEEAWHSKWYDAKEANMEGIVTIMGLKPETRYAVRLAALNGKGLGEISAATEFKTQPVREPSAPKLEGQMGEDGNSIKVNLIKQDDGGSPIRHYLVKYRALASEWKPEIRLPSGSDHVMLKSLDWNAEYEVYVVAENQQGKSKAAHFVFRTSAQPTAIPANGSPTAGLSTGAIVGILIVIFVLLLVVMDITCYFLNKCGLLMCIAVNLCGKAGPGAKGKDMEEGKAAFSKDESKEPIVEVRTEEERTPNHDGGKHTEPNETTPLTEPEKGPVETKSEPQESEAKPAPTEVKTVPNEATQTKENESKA
UniProt Q62910: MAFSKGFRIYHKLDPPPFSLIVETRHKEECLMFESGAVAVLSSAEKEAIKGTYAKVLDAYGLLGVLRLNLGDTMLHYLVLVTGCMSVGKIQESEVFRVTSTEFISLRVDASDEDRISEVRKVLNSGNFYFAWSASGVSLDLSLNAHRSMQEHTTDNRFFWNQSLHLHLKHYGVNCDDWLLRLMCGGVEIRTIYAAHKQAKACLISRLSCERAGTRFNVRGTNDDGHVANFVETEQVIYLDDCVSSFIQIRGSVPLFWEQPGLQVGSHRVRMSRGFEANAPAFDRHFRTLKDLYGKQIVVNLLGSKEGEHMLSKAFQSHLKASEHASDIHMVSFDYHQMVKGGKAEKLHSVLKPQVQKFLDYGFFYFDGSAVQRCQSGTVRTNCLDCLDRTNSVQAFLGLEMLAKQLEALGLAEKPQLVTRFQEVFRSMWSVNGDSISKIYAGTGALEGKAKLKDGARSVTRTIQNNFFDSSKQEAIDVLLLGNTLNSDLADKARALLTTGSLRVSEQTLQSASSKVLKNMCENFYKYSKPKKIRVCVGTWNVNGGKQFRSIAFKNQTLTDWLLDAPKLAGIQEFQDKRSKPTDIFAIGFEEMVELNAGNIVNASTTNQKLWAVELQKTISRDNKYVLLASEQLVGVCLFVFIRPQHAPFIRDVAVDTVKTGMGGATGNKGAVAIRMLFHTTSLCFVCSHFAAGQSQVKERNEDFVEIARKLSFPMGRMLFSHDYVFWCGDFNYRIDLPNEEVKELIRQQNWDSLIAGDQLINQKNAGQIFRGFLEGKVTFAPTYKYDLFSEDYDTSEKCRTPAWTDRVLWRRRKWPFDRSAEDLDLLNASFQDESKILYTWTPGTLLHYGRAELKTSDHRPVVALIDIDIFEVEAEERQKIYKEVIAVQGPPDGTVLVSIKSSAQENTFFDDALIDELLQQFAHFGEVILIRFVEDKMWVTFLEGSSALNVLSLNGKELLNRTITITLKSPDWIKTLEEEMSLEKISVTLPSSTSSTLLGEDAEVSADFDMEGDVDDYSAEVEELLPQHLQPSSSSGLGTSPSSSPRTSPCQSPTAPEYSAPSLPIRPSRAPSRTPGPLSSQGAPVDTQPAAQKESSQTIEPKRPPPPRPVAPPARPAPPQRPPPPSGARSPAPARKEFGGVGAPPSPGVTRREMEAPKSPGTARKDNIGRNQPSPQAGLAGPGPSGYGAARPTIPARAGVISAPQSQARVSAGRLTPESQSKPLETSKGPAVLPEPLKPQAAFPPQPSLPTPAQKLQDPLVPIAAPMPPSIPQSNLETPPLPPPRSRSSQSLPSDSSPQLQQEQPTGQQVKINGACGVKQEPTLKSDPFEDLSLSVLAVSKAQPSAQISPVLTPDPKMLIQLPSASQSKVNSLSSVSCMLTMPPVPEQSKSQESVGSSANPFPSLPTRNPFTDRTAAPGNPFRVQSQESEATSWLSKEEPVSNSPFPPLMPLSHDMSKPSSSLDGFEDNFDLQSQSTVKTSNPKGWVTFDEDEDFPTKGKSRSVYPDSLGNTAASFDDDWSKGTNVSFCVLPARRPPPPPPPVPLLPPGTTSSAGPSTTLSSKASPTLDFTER

Results are given in words; binding and its absence hold for the method and conditions named. In cells and extracts the contact can be indirect. A yes stands for co-enrichment or nearness to the bait. Other partners may have been found.

In the experiment the target is T1, M6a-loops (rat) (UniProt Q812E9).
T1 sequence (chain, biotin on the BAP (sec-BirA from the pBig plasmid)): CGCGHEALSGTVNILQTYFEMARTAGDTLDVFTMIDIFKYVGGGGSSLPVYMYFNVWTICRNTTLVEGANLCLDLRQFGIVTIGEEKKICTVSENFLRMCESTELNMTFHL
Put plainly: affinity purification with mass spectrometry; M6a-loops (10-25 ug, from concentrated supernatant) held by anti-SV5-mAb cross-linked to protein A magnetic beads (1 h, room temperature); incubated with clarified pooled rat hippocampi extract (P14, P21, P30; 1% Triton X-100 in PBS; 200-350 ug) overnight at 4 C; washed three times with PBS-T; eluted in SDS buffer with DTT; TMT/MS; mock: M6a-loops with protein A beads without anti-SV5; three co-IPs with two replicates each.

On to Stxbp1 (from UniProt P61765 1-594), for which the binding result is listed as “binds”.

For Atp1a3 (from UniProt P06687 1-1013), the binding entry is given as “binds”.

On to Lrp1 (from UniProt G3V928 20-4545), for which the binding result is given as “binds”.

With Bsn (from UniProt O88778 1-3938), the binding entry is “binds”.

Take Atp6v1b2 (from UniProt P62815 1-511): the binding entry was “binds”.

Sv2a (from UniProt Q02563 1-742): the binding entry was “binds”.

With Atp2b2 (from UniProt P11506 1-1243), the binding entry was “binds”.

Take Tnc (rat (endogenous in hippocampus)): the binding entry was “binds”.

As to Epb41 (rat (endogenous in hippocampus)), the binding result is “binds”.

As for piccolo (from UniProt Q9JKS6 1-5085), the binding result is given as “binds”.

Consider Atp2b4 (from UniProt Q64542 1-1203), for which the binding result is on record as “binds”.

Take Vdac1 (from UniProt Q9Z2L0 1-283): the binding result was “binds”.

In the case of Eno2 (from UniProt P07323 1-434), the binding result is “binds”.

Regarding Syt1 (from UniProt P21707 1-421), the binding entry is listed as “binds”.

With “synaptic vesicle glycoprotein 2B (from UniProt Q63564 1-683)”, the binding result is “binds”.

For Bcan (from UniProt P55068 23-883), the binding result was “binds”.

synapsin 1 (from UniProt P09951 1-704): the binding result is listed as “binds”.

With “glutamate ionotropic receptor, GRIN1 (from UniProt P35439 19-938)”, the binding result is “binds”.

Turning to Atp1a2 (from UniProt P06686 1-1020), the binding entry was “binds”.

On to Atp6v1e1 (from UniProt Q6PCU2 1-226), for which the binding result is “binds”.

As for Atp6v1c1 (from UniProt Q5FVI6 1-382), the binding result was “binds”.

In the case of App (from UniProt P08592 18-770), the binding entry is listed as “binds”.

As to Cadps (from UniProt Q62717 1-1289), the binding entry is on record as “binds”.

In the case of Ppia (from UniProt P10111 1-164), the binding result is listed as “binds”.

With Atp6v1a (from UniProt D4A133 1-647), the binding result is “binds”.

Take Snap25 (from UniProt P60881 1-206): the binding entry was “binds”.

On to Aqp4 (from UniProt P47863 1-323), for which the binding result is “binds”.

As to Scn2a (from UniProt P04775 1-2005), the binding result was “binds”.

As for Dpysl3 (from UniProt Q62952 1-570), the binding result is reported as “binds”.

For the molecule Nrxn3 (from UniProt Q07310 28-1578), the binding entry is given as “binds”.

As for Atp1b1 (from UniProt P07340 1-304), the binding entry is reported as “binds”.

On to “Atp6v1g2 (rat (endogenous in hippocampus))”, for which the binding entry is “binds”.

Regarding “synaptophysin (from UniProt P07825 1-307)”, the binding result was “binds”.

For “neural cell adhesion molecule 1 (from UniProt P13596 20-858)”, the binding result is “binds”.

As for Dpp6 (from UniProt P46101 1-859), the binding result is “binds”.

On to Ncan (from UniProt P55067 23-1257), for which the binding result was “binds”.

Regarding Atp6v0a1 (from UniProt P25286 1-838), the binding entry is “binds”.

Take Omg (rat (endogenous in hippocampus)): the binding result is “binds”.

As to “Epb41l2 (rat (endogenous in hippocampus))”, the binding entry is listed as “binds”.

Take Cpne6 (rat (endogenous in hippocampus)): the binding entry is on record as “binds”.

Nptn (from UniProt P97546 29-393): the binding entry is “binds”.

On to Anxa5 (from UniProt P14668 1-319), for which the binding entry is reported as “binds”.

Take Atp1b2 (from UniProt P13638 1-290): the binding result is on record as “binds”.

As to Syn2 (from UniProt Q63537 1-586), the binding result is given as “binds”.

As for Gja1 (from UniProt P08050 1-382), the binding result is recorded as “binds”.

In the case of Epb41l3 (from UniProt A3E0T0 1-870), the binding result is reported as “binds”.

As to “Atp6v1h (rat (endogenous in hippocampus))”, the binding entry was “binds”.

For the molecule Ttyh3 (rat (endogenous in hippocampus)), the binding result is listed as “binds”.

For Slc3a2 (from UniProt Q794F9 1-527), the binding result is reported as “binds”.

For Synj1 (from UniProt Q62910 1-1574), the binding result is “binds”.

Take “metabotropic glutamate receptor 1 (from UniProt P23385 19-1199)”: the binding result is listed as “binds”.

B1: Slc12a5 (protein, UniProt Q63633 1-1139)
chain: MSRRFTVTSLPPAASAASADPESRRHSVADPRRLPREDVKGDGNPKESSPFINSTDTEKGREYDGRNMALFEEEMDTSPMVSSLLSGLANYTNLPQGSKEHEEAENNEGGKKKPVQAPRMGTFMGVYLPCLQNIFGVILFLRLTWVVGIAGIMESFCMVFICCSCTMLTAISMSAIATNGVVPAGGSYYMISRSLGPEFGGAVGLCFYLGTTFAGAMYILGTIEILLAYLFPAMAIFKAEDASGEAAAMLNNMRVYGTCVLTCMATVVFVGVKYVNKFALVFLGCVILSILAIYAGVIKSAFDPPNFPICLLGNRTLSRHGFDVCAKLAWEGNETVTTRLWGLFCSSRLLNATCDEYFTRNNVTEIQGIPGAASGLIKENLWSSYLTKGVIVERRGMPSVGLADGTPVDMDHPYVFSDMTSYFTLLVGIYFPSVTGIMAGSNRSGDLRDAQKSIPTGTILAIATTSAVYISSVVLFGACIEGVVLRDKFGEAVNGNLVVGTLAWPSPWVIVIGSFFSTCGAGLQSLTGAPRLLQAISRDGIVPFLQVFGHGKANGEPTWALLLTACICEIGILIASLDEVAPILSMFFLMCYMFVNLACAVQTLLRTPNWRPRFRYYHWTLSFLGMSLCLALMFICSWYYALVAMLIAGLIYKYIEYRGAEKEWGDGIRGLSLSAARYALLRLEEGPPHTKNWRPQLLVLVRVDQDQNVVHPQLLSLTSQLKAGKGLTIVGSVLEGTFLDNHPQAQRAEESIRRLMEAEKVKGFCQVVISSNLRDGVSHLIQSGGLGGLQHNTVLVGWPRNWRQKEDHQTWRNFIELVRETTAGHLALLVTKNVSMFPGNPERFSEGSIDVWWIVHDGGMLMLLPFLLRHHKVWRKCKMRIFTVAQMDDNSIQMKKDLTTFLYHLRITAEVEVVEMHESDISAYTYEKTLVMEQRSQILKQMHLTKNEREREIQSITDESRGSIRRKNPANTRLRLNVPEETACDNEEKPEEEVQLIHDQSAPSCPSSSPSPGEEPEGEGETDPEKVHLTWTKDKSAAQKNKGPSPVSSEGIKDFFSMKPEWENLNQSNVRRMHTAVRLNEVIVNKSRDAKLVLLNMPGPPRNRNGDENYMEFLEVLTEQLDRVMLVRGGGREVITIYS
Regarding B1, the binding entry is “binds”.

B2: Slc4a4 (protein, UniProt Q9JI66 1-1079)
chain: MEDEAVLDRGASFLKHVCDEEEVEGHHTIYIGVHVPKSYRRRRRHKRKAGHKEKKEKERISENYSDKSDVENADESSSSILKPLISPAAERIRFILGEEDDSPAPPQLFTELDELLAVDGQEMEWKETARWIKFEEKVEQGGERWSKPHVATLSLHSLFELRTCMEKGSIMLDREASSLPQLVEMIADHQIETGLLKPDLKDKVTYTLLRKHRHQTKKSNLRSLADIGKTVSSASRMFSNPDNGSPAMTHRNLTSSSLNDISDKPEKDQLKNKFMKKLPRDAEASNVLVGEVDFLDTPFIAFVRLQQAVMLGALTEVPVPTRFLFILLGPKGKAKSYHEIGRAIATLMSDEVFHDIAYKAKDRHDLIAGIDEFLDEVIVLPPGEWDPAIRIEPPKSLPSSDKRKNMYSGGENVQMNGDTPHDGGHGGGGHGDCEELQRTGRFCGGLIKDIKRKAPFFASDFYDALNIQALSAILFIYLATVTNAITFGGLLGDATDNMQGVLESFLGTAVSGAIFCLFAGQPLTILSSTGPVLVFERLLFNFSKDHSFDYLEFRLWIGLWSAFMCLILVATDASFLVQYFTRFTEEGFSSLISFIFIYDAFKKMIKLADYYPINSDFRVGYNTHFSCACLPPDPVNLSVSNDTTLAPEDLPTVSSTDMYHNATFDWAYLSKKECVKFGGKLVGNNCDFVPDITLMSFILFLGTYTSSMAMKKFKTSRYFPTTARKLISDFAIILSILIFCVIDALVGVDTPKLIVPSEFKPTSPHRGWFVPPFGGNPWWVCLAAAIPALLVTILIFMDQQITAVIVNRKEHKLKKGAGYHLDLFWVAILMVVCSFMALPWYVAATVISIAHIDSLKMETETSAPGEQPKFLGVREQRVTGTLVFILTGLSVFMAPILKFIPMPVLYGVFLYMGVASLNGVQFMDRLKLLLMPLKHQPDFIYLRHVPLRRVHLFTSLQVLCLALLWILKSTVAAIIFPVMILALVAVRKGMDYLFSQHDLSFLDDVIPEKDKKKKEDEKKKKKKKGSLDSDNDDSDCPYSEKVPSIKIPMDITEQQPFLSDNKPLDRERSSTFLERHTSC
As for B2, the binding result is on record as “binds”.

B3: Slc1a3 (protein, UniProt P24942 1-543)
chain: MTKSNGEEPRMGSRMERFQQGVRKRTLLAKKKVQNITKEDVKSYLFRNAFVLLTVSAVIVGTILGFALRPYKMSYREVKYFSFPGELLMRMLQMLVLPLIISSLVTGMAALDSKASGKMGMRAVVYYMTTTIIAVVIGIIIVIIIHPGKGTKENMYREGKIVQVTAADAFLDLIRNMFPPNLVEACFKQFKTSYEKRSFKVPIQANETLLGAVINNVSEAMETLTRIREEMVPVPGSVNGVNALGLVVFSMCFGFVIGNMKEQGQALREFFDSLNEAIMRLVAVIMWYAPLGILFLIAGKILEMEDMGVIGGQLAMYTVTVIVGLLIHAVIVLPLLYFLVTRKNPWVFIGGLLQALITALGTSSSSATLPITFKCLEENNGVDKRITRFVLPVGATINMDGTALYEALAAIFIAQVNNFDLNFGQIITISITATAASIGAAGIPQAGLVTMVIVLTSVGLPTDDITLIIAVDWFLDRLRTTTNVLGDSLGAGIVEHLSRHELKNRDVEMGNSVIEENEMKKPYQLIAQDNEPEKPVADSETKM
Regarding B3, the binding entry is “binds”.
